Among the data in PMC6983718 are binding values, retold here.

The chains behind the UniProt entries cited, without tags or fusion partners. Where a name states a change or a piece, a line headed by the entry shows the natural chain unless it says otherwise.
UniProt P23573: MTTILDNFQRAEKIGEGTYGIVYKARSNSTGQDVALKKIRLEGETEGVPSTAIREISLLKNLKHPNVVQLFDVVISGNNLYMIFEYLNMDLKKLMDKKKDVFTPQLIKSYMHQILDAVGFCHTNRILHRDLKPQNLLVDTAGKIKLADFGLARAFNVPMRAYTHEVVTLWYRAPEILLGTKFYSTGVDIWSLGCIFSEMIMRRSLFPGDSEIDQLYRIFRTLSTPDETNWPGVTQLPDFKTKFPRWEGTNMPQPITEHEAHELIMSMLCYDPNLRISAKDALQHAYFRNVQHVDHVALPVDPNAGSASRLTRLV
UniProt P02828: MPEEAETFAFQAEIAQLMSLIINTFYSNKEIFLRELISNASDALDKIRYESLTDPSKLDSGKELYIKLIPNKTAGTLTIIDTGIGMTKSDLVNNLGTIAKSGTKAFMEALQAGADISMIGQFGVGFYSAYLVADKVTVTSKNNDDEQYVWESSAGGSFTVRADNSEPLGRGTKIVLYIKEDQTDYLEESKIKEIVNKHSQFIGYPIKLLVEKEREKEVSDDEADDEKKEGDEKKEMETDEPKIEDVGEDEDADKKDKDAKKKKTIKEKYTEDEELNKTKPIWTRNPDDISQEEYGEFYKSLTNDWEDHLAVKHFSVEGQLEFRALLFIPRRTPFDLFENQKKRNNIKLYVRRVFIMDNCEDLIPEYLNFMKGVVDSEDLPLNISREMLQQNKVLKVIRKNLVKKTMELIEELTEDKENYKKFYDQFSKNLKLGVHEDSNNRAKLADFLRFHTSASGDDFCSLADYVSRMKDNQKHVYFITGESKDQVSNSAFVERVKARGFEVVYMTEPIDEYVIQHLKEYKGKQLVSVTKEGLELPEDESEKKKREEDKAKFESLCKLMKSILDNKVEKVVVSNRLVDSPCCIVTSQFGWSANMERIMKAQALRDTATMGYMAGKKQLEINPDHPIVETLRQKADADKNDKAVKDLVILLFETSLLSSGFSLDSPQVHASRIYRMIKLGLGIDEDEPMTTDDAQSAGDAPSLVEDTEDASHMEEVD
UniProt Q9VRQ2: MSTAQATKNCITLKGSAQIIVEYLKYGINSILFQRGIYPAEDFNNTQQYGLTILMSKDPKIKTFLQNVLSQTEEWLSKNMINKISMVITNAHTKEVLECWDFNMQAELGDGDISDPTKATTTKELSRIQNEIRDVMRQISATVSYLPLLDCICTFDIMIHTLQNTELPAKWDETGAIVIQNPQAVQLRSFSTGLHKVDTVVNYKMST
UniProt Q8I8U7: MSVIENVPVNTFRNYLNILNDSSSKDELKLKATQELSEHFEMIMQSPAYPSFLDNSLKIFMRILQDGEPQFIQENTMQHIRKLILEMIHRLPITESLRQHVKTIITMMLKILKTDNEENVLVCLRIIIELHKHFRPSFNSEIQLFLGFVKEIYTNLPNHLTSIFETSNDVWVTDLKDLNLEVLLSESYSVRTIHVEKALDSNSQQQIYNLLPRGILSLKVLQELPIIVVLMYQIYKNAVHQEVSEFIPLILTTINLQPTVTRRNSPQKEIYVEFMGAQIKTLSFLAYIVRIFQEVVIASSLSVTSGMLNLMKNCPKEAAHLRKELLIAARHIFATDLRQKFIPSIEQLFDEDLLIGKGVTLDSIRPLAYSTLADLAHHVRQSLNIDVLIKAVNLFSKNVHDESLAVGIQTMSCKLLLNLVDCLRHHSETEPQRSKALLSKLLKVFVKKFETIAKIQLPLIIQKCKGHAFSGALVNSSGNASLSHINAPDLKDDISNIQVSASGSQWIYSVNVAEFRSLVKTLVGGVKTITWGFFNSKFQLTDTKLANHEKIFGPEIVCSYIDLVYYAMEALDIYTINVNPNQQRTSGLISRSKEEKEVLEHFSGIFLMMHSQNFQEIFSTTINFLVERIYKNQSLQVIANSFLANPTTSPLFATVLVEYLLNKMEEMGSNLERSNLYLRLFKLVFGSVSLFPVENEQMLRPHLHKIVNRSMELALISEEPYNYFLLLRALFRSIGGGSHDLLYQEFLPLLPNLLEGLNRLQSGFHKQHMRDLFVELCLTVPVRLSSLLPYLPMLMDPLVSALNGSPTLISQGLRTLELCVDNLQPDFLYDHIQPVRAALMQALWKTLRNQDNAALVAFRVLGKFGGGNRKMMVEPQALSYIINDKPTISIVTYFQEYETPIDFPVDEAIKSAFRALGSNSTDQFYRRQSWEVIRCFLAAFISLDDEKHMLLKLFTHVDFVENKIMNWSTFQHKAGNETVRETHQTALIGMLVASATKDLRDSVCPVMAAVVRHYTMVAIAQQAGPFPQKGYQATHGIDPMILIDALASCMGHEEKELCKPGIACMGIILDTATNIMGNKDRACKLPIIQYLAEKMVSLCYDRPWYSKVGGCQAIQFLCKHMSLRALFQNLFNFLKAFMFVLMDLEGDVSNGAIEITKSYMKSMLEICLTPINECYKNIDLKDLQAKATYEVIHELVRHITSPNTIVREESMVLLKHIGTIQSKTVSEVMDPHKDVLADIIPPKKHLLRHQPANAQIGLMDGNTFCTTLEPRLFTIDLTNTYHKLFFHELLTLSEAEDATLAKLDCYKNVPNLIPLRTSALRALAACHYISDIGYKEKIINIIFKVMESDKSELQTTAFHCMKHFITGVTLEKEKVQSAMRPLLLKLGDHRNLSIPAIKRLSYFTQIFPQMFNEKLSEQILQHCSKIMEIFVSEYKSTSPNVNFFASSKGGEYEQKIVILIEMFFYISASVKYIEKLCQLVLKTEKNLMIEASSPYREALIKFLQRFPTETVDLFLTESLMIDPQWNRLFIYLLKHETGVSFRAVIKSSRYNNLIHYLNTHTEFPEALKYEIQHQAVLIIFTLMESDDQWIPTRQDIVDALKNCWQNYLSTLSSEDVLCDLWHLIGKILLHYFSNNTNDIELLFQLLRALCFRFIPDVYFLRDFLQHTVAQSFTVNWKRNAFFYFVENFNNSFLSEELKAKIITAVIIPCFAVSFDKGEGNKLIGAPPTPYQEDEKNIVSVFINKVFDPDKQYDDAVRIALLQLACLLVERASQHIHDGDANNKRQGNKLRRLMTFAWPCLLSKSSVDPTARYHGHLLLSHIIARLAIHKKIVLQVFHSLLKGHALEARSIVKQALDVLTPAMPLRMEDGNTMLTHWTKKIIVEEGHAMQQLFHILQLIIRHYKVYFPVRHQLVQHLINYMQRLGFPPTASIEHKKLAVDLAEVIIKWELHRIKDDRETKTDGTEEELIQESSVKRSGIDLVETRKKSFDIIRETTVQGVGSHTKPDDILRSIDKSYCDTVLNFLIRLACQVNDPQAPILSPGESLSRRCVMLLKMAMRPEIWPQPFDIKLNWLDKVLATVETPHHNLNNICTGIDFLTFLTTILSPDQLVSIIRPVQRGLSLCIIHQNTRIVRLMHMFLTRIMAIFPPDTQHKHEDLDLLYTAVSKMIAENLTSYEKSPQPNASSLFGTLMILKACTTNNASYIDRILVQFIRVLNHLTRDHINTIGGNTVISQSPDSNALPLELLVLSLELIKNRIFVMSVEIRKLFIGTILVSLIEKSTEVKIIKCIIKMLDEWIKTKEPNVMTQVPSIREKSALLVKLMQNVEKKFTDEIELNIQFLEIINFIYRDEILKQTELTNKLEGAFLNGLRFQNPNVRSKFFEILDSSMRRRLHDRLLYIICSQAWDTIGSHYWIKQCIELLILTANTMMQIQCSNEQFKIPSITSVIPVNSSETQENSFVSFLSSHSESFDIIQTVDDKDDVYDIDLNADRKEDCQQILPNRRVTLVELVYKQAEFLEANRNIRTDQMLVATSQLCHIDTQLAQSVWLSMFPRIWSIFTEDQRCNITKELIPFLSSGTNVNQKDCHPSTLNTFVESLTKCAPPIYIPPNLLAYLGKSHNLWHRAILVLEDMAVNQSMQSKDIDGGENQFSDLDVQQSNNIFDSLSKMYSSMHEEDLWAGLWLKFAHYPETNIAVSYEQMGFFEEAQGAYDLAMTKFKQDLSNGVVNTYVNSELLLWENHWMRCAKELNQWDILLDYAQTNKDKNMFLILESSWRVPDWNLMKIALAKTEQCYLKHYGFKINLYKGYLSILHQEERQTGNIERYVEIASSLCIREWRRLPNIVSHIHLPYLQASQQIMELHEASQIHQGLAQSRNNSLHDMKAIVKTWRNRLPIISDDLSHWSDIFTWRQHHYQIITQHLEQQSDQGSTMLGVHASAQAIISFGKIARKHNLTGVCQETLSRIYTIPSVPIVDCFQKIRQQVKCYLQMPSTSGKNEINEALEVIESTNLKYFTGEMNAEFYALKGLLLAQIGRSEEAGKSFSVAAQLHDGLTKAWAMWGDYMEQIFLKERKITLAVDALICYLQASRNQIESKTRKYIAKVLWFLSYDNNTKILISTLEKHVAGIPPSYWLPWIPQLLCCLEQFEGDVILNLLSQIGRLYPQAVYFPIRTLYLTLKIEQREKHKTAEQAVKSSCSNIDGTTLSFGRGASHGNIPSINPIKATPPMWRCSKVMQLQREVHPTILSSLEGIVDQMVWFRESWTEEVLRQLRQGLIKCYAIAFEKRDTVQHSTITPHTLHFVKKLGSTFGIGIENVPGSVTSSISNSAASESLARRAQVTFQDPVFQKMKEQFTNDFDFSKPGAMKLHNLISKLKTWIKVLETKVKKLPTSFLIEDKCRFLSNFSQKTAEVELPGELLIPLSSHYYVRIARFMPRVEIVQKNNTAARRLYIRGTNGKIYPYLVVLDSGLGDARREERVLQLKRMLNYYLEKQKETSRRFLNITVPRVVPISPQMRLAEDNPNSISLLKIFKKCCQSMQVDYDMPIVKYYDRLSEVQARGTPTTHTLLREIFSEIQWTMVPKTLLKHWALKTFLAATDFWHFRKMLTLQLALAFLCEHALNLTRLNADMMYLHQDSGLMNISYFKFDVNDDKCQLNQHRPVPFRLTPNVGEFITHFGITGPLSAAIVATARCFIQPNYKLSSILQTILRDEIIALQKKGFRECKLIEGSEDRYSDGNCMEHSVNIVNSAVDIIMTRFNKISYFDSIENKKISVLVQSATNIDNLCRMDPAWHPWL
UniProt Q9VH07: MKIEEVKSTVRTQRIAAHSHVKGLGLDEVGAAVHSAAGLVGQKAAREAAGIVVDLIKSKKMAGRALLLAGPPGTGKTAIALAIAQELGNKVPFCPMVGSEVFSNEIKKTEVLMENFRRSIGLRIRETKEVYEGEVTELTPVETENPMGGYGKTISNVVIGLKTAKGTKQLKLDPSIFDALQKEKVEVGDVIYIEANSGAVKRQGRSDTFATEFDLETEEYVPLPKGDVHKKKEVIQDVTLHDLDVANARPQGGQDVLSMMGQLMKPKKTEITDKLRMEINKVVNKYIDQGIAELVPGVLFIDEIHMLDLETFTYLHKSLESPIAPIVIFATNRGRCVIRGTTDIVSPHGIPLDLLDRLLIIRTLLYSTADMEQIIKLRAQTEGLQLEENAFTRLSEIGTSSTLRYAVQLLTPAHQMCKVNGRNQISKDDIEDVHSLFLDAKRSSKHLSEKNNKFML

B1: FKBP59 (protein, UniProt Q9VL78 1-439)
chain: MPEGNKIDLSGDGGVLKEILKEGTGTETPHSGCTVSLHYTGRLVDGTEFDSSLSRNEPFEFSLGKGNVIKAFDMGVATMKLGERCFLTCAPNYAYGAAGSPPAIPPDATLIFELEMLGWKGEDLSPNQDGSIDRTILEASDKKRTPSDGAFVKAHISGSFEGRVFEDRDVEFDYGEGKAIGIIDGVEIALEKMNVGETSRIKIQAKYAFGAKGNEEFKIPPNATVEYTVKLVDCGKGLEEWKLSDEERLAEAKVYKEKGTNYFKKENWALAIKMYTKCKNILPTTVHTNEEVKKIKVATHSNIALCHQKSNDHFEAKQECNEVLALDKNNVKALYRRGQCNLTINELEDALEDFQKVIQLEPGNKAAANQVIICKQKLKESKNKEKKLYANMFTKLAANDKETEPPRETDVLSKCGEWSEEDAKREAELTLERDNIIMI
B2: NudC (protein, UniProt Q9VVA6 1-332)
chain: MAAEEGKFDNILLAVAEKHHGGVPEFLGTLASFLRRKTDFFTGAKQTEWEKLLLDVFNKESKLAVTENYEKIKAREASQRLKAEKERAERKARKQEIDDNKICDITDEEAAAIIKEEETKKRQQLLDSAGGEPSASNRDGISKPIEKVDDESDKSELGKLMPNAGNGCTLENYTWTQTLEEVELKIPFNLTFGLRARDLVISIGKKSLKVGIKGQTPIIDGELCGEVKTEESVWVLQDSKTVMITLDKINKMNWWSRLVTTDPEISTRKINPESSKLSDLDGETRSMVEKMMYDQRQKELGLPTSEDRKKQDILEKFKQQHPEMDFSKCKFN
B3: Bdbt (protein, UniProt Q9VDE4 1-286)
chain: MDWYVGTEWEDKNRGLAKKVIGLQFTEMDKPTIISTVEFSVNKKATNLGGRPSKYLVSDESATYPQKHSLEMGTSLTAVDCYLELLLQQFVPGETAACSITTKTGERIEFELKLEKIVKNTQVEKLSAAEIYEVALRLKESGVATFKTFPKFAFDYFVRAAKLLITYKPFDKLTKKTNGINGQAVEELFIQIQTNLAACLLQEKRYEHVIYHTQFVETEESPSEKSIYRRALAYYHLKEFAKAQATIERMPNYEEKREFSKLRDNIAVSWKDSKAHYKEVVQRMFS

These are yes or no findings as the source states them, for the method shown. In cells and extracts the contact can be indirect. A yes stands for co-enrichment or nearness to the bait. Other partners may have been found. Tags and fused reporters may be left off the sequences shown.

The first assay has as its target T1, Mora–GFP (Drosophila) (UniProt Q9VCC0).
T1 sequence: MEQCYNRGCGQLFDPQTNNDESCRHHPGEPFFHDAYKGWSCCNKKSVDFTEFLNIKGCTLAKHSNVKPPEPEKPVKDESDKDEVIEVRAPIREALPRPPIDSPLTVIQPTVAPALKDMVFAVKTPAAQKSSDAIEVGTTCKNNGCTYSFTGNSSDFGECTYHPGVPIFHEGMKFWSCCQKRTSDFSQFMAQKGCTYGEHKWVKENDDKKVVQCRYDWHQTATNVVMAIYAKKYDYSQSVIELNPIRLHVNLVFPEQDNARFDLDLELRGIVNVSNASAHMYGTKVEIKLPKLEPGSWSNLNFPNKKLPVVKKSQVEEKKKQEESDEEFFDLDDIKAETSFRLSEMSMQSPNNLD
The experiment in a line: affinity purification with mass spectrometry; clarified extract of 0–3 h embryos expressing Mora–GFP incubated with GFP–TRAP-A beads 2 h at 4°C in C buffer (50 mM HEPES pH 7.4, 50 mM KCl, 1 mM MgCl2, 1 mM EGTA, 0.1% IGEPAL CA-630); hits filtered against a database of non-specific interactors; two experiments.
Take “CG16908 (Drosophila (endogenous in embryos))”: the binding entry is given as “binds”.

With Cdk2 (from UniProt P23573 1-314), the binding result is recorded as “binds”.

Take Hsp83 (from UniProt P02828 1-717): the binding result is reported as “binds”.

Turning to Mad2 (from UniProt Q9VRQ2), the binding result is reported as “binds”.

As for Nipped-A (from UniProt Q8I8U7 1-3790), the binding result is on record as “binds”.

On to “PPD3 (Drosophila (endogenous in embryos))”, for which the binding result is given as “binds”.

For the molecule Pontin (from UniProt Q9VH07 1-456), the binding entry is given as “binds”.

As to “ProsBeta5 (Drosophila (endogenous in embryos))”, the binding result is “binds”.

Regarding “Vap33 (Drosophila (endogenous in embryos))”, the binding result is on record as “binds”.

Another assay addresses T1, Mora–GFP (Drosophila). The description is as above. The source holds these as a separate data set.
Consider B1, for which the binding result is listed as “binds”.

Consider B2, for which the binding entry is recorded as “binds”.

With B3, the binding entry is reported as “binds”.
